Results are given in words; binding and its absence hold for the method and conditions named. For some of these results: Binding seen in cells or lysates may run through a third protein. Some results given as binding are weak or reduced against the parent protein; the word gives no strength.

By UniProt entry, the sequences of proteins in these tests, tags left out. Where a name states a change or a piece, a line headed by the entry shows the natural chain unless it says otherwise.
UniProt Q86U44: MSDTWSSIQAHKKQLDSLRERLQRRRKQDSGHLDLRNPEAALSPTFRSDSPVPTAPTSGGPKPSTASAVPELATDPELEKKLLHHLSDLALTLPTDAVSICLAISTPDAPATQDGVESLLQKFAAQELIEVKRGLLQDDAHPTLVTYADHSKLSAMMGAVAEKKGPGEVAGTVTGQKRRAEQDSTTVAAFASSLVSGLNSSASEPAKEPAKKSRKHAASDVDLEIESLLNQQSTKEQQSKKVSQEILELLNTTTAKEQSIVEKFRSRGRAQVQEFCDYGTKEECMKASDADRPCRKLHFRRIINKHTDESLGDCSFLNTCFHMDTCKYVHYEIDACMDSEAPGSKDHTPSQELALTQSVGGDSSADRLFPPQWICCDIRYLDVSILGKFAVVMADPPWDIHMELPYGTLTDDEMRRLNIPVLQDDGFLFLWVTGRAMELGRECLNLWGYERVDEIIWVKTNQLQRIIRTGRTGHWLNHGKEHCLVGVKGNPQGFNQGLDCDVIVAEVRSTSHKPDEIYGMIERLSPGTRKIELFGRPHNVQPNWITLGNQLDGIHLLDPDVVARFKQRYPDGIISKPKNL
UniProt O94992: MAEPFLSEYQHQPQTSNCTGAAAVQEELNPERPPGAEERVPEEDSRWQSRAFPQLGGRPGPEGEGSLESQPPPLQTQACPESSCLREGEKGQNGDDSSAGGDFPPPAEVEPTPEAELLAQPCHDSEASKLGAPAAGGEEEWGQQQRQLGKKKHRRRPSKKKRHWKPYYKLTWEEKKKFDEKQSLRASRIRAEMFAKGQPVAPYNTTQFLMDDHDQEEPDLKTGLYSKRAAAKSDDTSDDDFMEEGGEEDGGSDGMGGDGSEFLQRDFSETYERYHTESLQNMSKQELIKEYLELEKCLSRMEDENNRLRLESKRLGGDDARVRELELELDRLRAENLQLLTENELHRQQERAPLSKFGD

Assay [1] concerns the target phosphomimetic S43E METTL3 (human) (UniProt Q86U44). In words: SPR.
For a further assay, the target named is Flag-HEXIM1 (UniProt O94992). In words: co-IP.
In assay [2] the target is GST-METTL3 (non-phosphorylated) (human) (UniProt Q86U44). Kind of assay: pull-down.
For the next assay, the target named is Flag-METTL3 (human) (UniProt Q86U44). In words: co-IP.

On to HEXIM1 (from UniProt O94992 1-359), for which the binding entry in assay [1] is “no binding”. With “METTL3 (in cells that express Flag-HEXIM1) (from UniProt Q86U44 1-580) (enzyme)”, the binding entry with Flag-HEXIM1 is “binds”. “endogenous HEXIM1 (from UniProt O94992 1-359)”: the binding entry (in assay [2]; in the assay with Flag-METTL3 (human)) was “binds” each time.
